{"source": "the supplement of paper PMC8728848", "binders": {"B1": {"name": "PX14343G-pdi-535-24-535 (Parabacteroides distasonis) (protein)", "chain": "LDTVPKDQLAPSTTWQTEADAKGFIVGCYKDLLDGNTLLYLDCGSDIGYNNFPWEGFRPWGDGSLSSSNPGQILYDYKSIRKANTFLENVDKVTFSSDAVKANYVAQAKAIRAYKYFLMNWWYGGVPIISSYSSADEAKVERNTEQEVRDYIAKDLDEALAGIAEAPEARGYIAKGAVLAIKMREALYYGDWQKAKDAAKAIIDLKQYELDPDYTNLFKVSGVDSKEIILADQNIETLDGLGTIGQMYNNVDQGWSSIVPTQNLVDMYEMSDGLTKEESKTYDAKHPFANRDPRMAMTILYPGRDWRGDVLNTLDEKLQDGTVNKNFPTYTDNASKSALTWAKYLDPMDQYGDVWSSGACPIVFRYAEVLLTYAEAANELSGPSDEIYGYLNQIRQRVGMGEVDKAKYGTKDKLRELIRRERTVELAGEGLRRADIVRWQEDGKMLAEKVMNGDLLRVTGTINYGESEPTKRAEITGTAVIETRQFSSRNRYLPIPQTSMDKNPNLKQNPGY"}}, "experiment_in_all_cases": "glycan array binding signal (z-score within array); higher = stronger binding", "details_in_all_cases": "glycan notation: IUPAC condensed, linker removed", "key": {"GlcNAc(b1-3)Man": {"target": "GlcNAc(b1-3)Man", "summary_of_the_method": "(§1)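 Columns mapping to the same glycan were averaged after glycan names were converted to IUPAC-condensed notation. The data come from 3228 arrays in the Consortium for Functional Glycomics database, limited to those with an available protein sequence. Binding is reported as a within-array Z-score averaged across arrays of one protein sequence and across linkers.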"}, "[1]": {"target": "GlcNAc(b1-3)[GlcNAc(b1-4)][GlcNAc(b1-6)]GlcNAc", "summary_of_the_method": "as §1"}, "[2]": {"target": "GlcNAc(b1-3)[GlcNAc(b1-6)]Gal(b1-4)GlcNAc", "summary_of_the_method": "as §1"}, "[3]": {"target": "GlcNAc(b1-3)[GlcNAc(b1-6)]GalNAc", "summary_of_the_method": "as §1"}, "[4]": {"target": "GlcNAc(b1-4)Gal(b1-4)GlcNAc", "summary_of_the_method": "as §1"}, "GlcNAc(b1-4)GlcNAc": {"target": "GlcNAc(b1-4)GlcNAc", "summary_of_the_method": "as §1"}, "[5]": {"target": "GlcNAc(b1-4)GlcNAc(b1-4)GlcNAc", "summary_of_the_method": "as §1"}, "[6]": {"target": "GlcNAc(b1-4)GlcNAc(b1-4)GlcNAc(b1-4)GlcNAc(b1-4)GlcNAc", "summary_of_the_method": "as §1"}, "[7]": {"target": "GlcNAc(b1-4)GlcNAc(b1-4)GlcNAc(b1-4)GlcNAc(b1-4)GlcNAc(b1-4)GlcNAc", "summary_of_the_method": "as §1"}, "[8]": {"target": "GlcNAc(b1-4)[GlcNAc(b1-6)]GalNAc", "summary_of_the_method": "as §1"}, "[9]": {"target": "GlcNAc(b1-6)Gal(b1-4)GlcNAc", "summary_of_the_method": "as §1"}, "GlcNAc(b1-6)GalNAc": {"target": "GlcNAc(b1-6)GalNAc", "summary_of_the_method": "as §1"}, "[10]": {"target": "GlcNAc6S(b1-3)Gal(b1-4)GlcNAc", "summary_of_the_method": "as §1"}, "Kdn(a2-3)Gal(b1-3)GalNAc": {"target": "Kdn(a2-3)Gal(b1-3)GalNAc", "summary_of_the_method": "as §1"}, "Kdn(a2-3)Gal(b1-3)GlcNAc": {"target": "Kdn(a2-3)Gal(b1-3)GlcNAc", "summary_of_the_method": "as §1"}, "Kdn(a2-3)Gal(b1-4)Glc": {"target": "Kdn(a2-3)Gal(b1-4)Glc", "summary_of_the_method": "as §1"}, "Kdn(a2-3)Gal(b1-4)GlcNAc": {"target": "Kdn(a2-3)Gal(b1-4)GlcNAc", "summary_of_the_method": "as §1"}, "[11]": {"target": "Kdn(a2-3)Gal(b1-4)[Fuc(a1-3)]GlcNAc", "summary_of_the_method": "as §1"}, "Kdn(a2-6)Gal(b1-4)GlcNAc": {"target": "Kdn(a2-6)Gal(b1-4)GlcNAc", "summary_of_the_method": "as §1"}, "[12]": {"target": "Man(a1-2)Man(a1-2)Man(a1-3)Man", "summary_of_the_method": "as §1"}, "[13]": {"target": "Man(a1-2)Man(a1-2)Man(a1-6)[Man(a1-3)]Man", "summary_of_the_method": "as §1"}, "Man(a1-2)Man(a1-3)Man": {"target": "Man(a1-2)Man(a1-3)Man", "summary_of_the_method": "as §1"}, "[14]": {"target": "Man(a1-2)Man(a1-3)[Man(a1-2)Man(a1-6)]Man", "summary_of_the_method": "as §1"}, "[15]": {"target": "Man(a1-2)Man(a1-3)[Man(a1-2)Man(a1-6)]Man(a1-6)[Man(a1-2)Man(a1-2)Man(a1-3)]Man", "summary_of_the_method": "as §1"}, "[16]": {"target": "Man(a1-2)Man(a1-3)[Man(a1-2)Man(a1-6)]Man(a1-6)[Man(a1-2)Man(a1-2)Man(a1-3)]Man(b1-4)GlcNAc(b1-4)GlcNAc", "summary_of_the_method": "as §1"}, "[17]": {"target": "Man(a1-2)Man(a1-3)[Man(a1-6)]Man(a1-6)[Man(a1-2)Man(a1-3)]Man(b1-4)GlcNAc(b1-4)GlcNAc", "summary_of_the_method": "as §1"}, "[18]": {"target": "Man(a1-2)Man(a1-6)[Man(a1-3)]Man(a1-6)[Man(a1-2)Man(a1-2)Man(a1-3)]Man", "summary_of_the_method": "as §1"}, "[19]": {"target": "Man(a1-2)Man(a1-6)[Man(a1-3)]Man(a1-6)[Man(a1-2)Man(a1-2)Man(a1-3)]Man(b1-4)GlcNAc(b1-4)GlcNAc", "summary_of_the_method": "as §1"}, "Man(a1-3)[Man(a1-6)]Man": {"target": "Man(a1-3)[Man(a1-6)]Man", "summary_of_the_method": "as §1"}, "[20]": {"target": "Man(a1-3)[Man(a1-6)]Man(a1-6)[Man(a1-2)Man(a1-3)]Man(b1-4)GlcNAc(b1-4)GlcNAc", "summary_of_the_method": "as §1"}, "[21]": {"target": "Man(a1-3)[Man(a1-6)]Man(a1-6)[Man(a1-3)]Man", "summary_of_the_method": "as §1"}, "[22]": {"target": "Man(a1-3)[Man(a1-6)]Man(a1-6)[Man(a1-3)]Man(b1-4)GlcNAc(b1-4)GlcNAc", "summary_of_the_method": "as §1"}, "[23]": {"target": "Man(a1-3)[Man(a1-6)]Man(b1-4)GlcNAc(b1-4)GlcNAc", "summary_of_the_method": "as §1"}, "[24]": {"target": "Man(a1-3)[Man(a1-6)]Man(b1-4)GlcNAc(b1-4)[Fuc(a1-6)]GlcNAc", "summary_of_the_method": "as §1"}, "Man(a1-6)Man": {"target": "Man(a1-6)Man", "summary_of_the_method": "as §1"}, "Man(b1-4)GlcNAc": {"target": "Man(b1-4)GlcNAc", "summary_of_the_method": "as §1"}, "MurNAc(b1-4)GlcNAc": {"target": "MurNAc(b1-4)GlcNAc", "summary_of_the_method": "as §1"}, "Neu5Ac(a2-3)Gal": {"target": "Neu5Ac(a2-3)Gal", "summary_of_the_method": "as §1"}}, "note": "Some of the results follow."}
{"binder": "B1", "values": [{"measurement": "glycan array binding signal (z-score)", "setting": "GlcNAc(b1-3)Man", "result": -0.358}, {"measurement": "glycan array binding signal (z-score)", "setting": "[1]", "result": 0.73}, {"measurement": "glycan array binding signal (z-score)", "setting": "[2]", "result": 1}, {"measurement": "glycan array binding signal (z-score)", "setting": "[3]", "result": -0.383}, {"measurement": "glycan array binding signal (z-score)", "setting": "[4]", "result": -0.991}, {"measurement": "glycan array binding signal (z-score)", "setting": "GlcNAc(b1-4)GlcNAc", "result": -0.119}, {"measurement": "glycan array binding signal (z-score)", "setting": "[5]", "result": 0.168}, {"measurement": "glycan array binding signal (z-score)", "setting": "[6]", "result": 0.26}, {"measurement": "glycan array binding signal (z-score)", "setting": "[7]", "result": 0.028}, {"measurement": "glycan array binding signal (z-score)", "setting": "[8]", "result": 0.546}, {"measurement": "glycan array binding signal (z-score)", "setting": "[9]", "result": -0.303}, {"measurement": "glycan array binding signal (z-score)", "setting": "GlcNAc(b1-6)GalNAc", "result": 0.185}, {"measurement": "glycan array binding signal (z-score)", "setting": "[10]", "result": -0.541}, {"measurement": "glycan array binding signal (z-score)", "setting": "Kdn(a2-3)Gal(b1-3)GalNAc", "result": -0.224}, {"measurement": "glycan array binding signal (z-score)", "setting": "Kdn(a2-3)Gal(b1-3)GlcNAc", "result": 0.143}, {"measurement": "glycan array binding signal (z-score)", "setting": "Kdn(a2-3)Gal(b1-4)Glc", "result": 0.265}, {"measurement": "glycan array binding signal (z-score)", "setting": "Kdn(a2-3)Gal(b1-4)GlcNAc", "result": -0.191}, {"measurement": "glycan array binding signal (z-score)", "setting": "[11]", "result": -0.272}, {"measurement": "glycan array binding signal (z-score)", "setting": "Kdn(a2-6)Gal(b1-4)GlcNAc", "result": 0.115}, {"measurement": "glycan array binding signal (z-score)", "setting": "[12]", "result": 0.086}, {"measurement": "glycan array binding signal (z-score)", "setting": "[13]", "result": -0.28}, {"measurement": "glycan array binding signal (z-score)", "setting": "Man(a1-2)Man(a1-3)Man", "result": -0.387}, {"measurement": "glycan array binding signal (z-score)", "setting": "[14]", "result": -0.447}, {"measurement": "glycan array binding signal (z-score)", "setting": "[15]", "result": -0.205}, {"measurement": "glycan array binding signal (z-score)", "setting": "[16]", "result": 0.892}, {"measurement": "glycan array binding signal (z-score)", "setting": "[17]", "result": -0.884}, {"measurement": "glycan array binding signal (z-score)", "setting": "[18]", "result": -1.27}, {"measurement": "glycan array binding signal (z-score)", "setting": "[19]", "result": 1.06}, {"measurement": "glycan array binding signal (z-score)", "setting": "Man(a1-3)[Man(a1-6)]Man", "result": -1.51}, {"measurement": "glycan array binding signal (z-score)", "setting": "[20]", "result": -0.028}, {"measurement": "glycan array binding signal (z-score)", "setting": "[21]", "result": -0.217}, {"measurement": "glycan array binding signal (z-score)", "setting": "[22]", "result": 0.904}, {"measurement": "glycan array binding signal (z-score)", "setting": "[23]", "result": -0.762}, {"measurement": "glycan array binding signal (z-score)", "setting": "[24]", "result": 0.371}, {"measurement": "glycan array binding signal (z-score)", "setting": "Man(a1-6)Man", "result": 2.08}, {"measurement": "glycan array binding signal (z-score)", "setting": "Man(b1-4)GlcNAc", "result": 1.13}, {"measurement": "glycan array binding signal (z-score)", "setting": "MurNAc(b1-4)GlcNAc", "result": 0.78}, {"measurement": "glycan array binding signal (z-score)", "setting": "Neu5Ac(a2-3)Gal", "result": -0.963}]}
